Assay results taken from article PMC6657668, “Porcine Beta-Defensin 2 Provides Protection Against Bacterial Infection by a Direct Bactericidal Activity and Alleviates Inflammation via Interference With the TLR4/NF-κB Pathway” (Frontiers in Immunology, 2019).
Results are given in words; binding and its absence hold for the method and conditions named. For part of these data: In cells and extracts the contact can be indirect. Some binding calls cover weakened binding; strength is not graded here.

By UniProt entry, the sequences of proteins in these tests, tags left out. Residues count along the entry.
UniProt P02769, residues 25-607: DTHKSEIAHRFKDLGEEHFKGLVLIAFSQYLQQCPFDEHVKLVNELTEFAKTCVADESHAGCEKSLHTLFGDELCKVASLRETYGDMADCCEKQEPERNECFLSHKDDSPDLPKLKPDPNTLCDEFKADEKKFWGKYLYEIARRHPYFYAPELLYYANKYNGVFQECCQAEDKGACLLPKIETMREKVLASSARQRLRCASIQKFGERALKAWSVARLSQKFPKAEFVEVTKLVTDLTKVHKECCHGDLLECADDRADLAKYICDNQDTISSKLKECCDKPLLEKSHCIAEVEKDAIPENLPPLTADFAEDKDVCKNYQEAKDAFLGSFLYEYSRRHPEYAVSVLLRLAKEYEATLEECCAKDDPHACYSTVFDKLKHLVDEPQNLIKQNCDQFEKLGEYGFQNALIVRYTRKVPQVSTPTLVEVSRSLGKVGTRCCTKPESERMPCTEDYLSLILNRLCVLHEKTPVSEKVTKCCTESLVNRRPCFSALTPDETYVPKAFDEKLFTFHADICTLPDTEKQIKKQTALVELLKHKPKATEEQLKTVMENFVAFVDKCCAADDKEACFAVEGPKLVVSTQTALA

T1: Porcine beta-defensin 2 (PBD-2), synthetic mature peptide (pig)
T1 sequence (peptide): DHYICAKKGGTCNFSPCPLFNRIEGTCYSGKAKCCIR

T2: TLR4, purified recombinant protein (Cloud-clone # RPA753Mu01) (UniProt Q9QUK6 26-638)
T2 construct: Toll-like receptor 4 (TLR4), bought recombinant protein; the vendor's data sheet is needed; also called purified TLR4; source: bought: Cloud-clone (# RPA753Mu01)
T2 sequence (looked up): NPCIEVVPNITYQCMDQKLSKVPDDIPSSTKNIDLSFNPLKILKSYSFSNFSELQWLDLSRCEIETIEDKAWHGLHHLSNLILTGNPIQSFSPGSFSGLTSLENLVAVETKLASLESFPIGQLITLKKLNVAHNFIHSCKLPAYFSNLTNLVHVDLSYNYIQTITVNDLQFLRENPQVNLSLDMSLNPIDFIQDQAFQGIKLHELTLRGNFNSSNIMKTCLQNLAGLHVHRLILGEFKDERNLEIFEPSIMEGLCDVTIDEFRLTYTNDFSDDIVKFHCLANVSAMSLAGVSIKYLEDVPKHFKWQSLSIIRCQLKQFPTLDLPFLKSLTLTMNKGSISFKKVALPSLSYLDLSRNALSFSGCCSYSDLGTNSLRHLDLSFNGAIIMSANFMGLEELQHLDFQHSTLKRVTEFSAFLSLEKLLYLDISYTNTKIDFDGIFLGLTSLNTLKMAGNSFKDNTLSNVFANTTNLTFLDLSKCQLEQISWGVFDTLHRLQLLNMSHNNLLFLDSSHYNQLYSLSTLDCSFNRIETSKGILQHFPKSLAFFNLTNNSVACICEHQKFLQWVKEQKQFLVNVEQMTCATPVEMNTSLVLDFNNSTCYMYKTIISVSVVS


What was measured:
[1] = biological target: T1, Porcine beta-defensin 2 (PBD-2), synthetic mature peptide (pig); assay: co-IP; RAW 264.7 cells treated with synthetic PBD-2 (1, 10, 30 and 50 μg/ml) for 16 h and lysed; lysate precipitated with PBD-2 antisera (control: mouse IgG) and protein A/G beads; TLR4 detected by Western blot; only the target purified
[2] = biological target: T2, TLR4, purified recombinant protein …; assay: far-Western, overlay or dot blot; TLR4 and BSA run on SDS-PAGE and transferred to a PVDF membrane, blocked with BSA, incubated with 10 μg/ml PBD-2 in PBST at 37°C for 2 h; detected with anti-PBD-2 antisera; both purified
[3] = biological target: Bovine serum albumin (BSA) (bovine) (UniProt P02769); assay: as above

binding [1] | binding [2] | binding [3] | Molecule
binds | – | – | TLR4, endogenous in RAW 264.7 cells (from UniProt Q9QUK6 26-835) (receptor)
– | binds | no binding (tested: 10 μg/ml PBD-2) | DHYICAKKGGTCNFSPCPLFNRIEGTCYSGKAKCCIR [Porcine beta-defensin 2 (PBD-2), synthetic mature peptide]
